PubChem BioAssay AID1159578, Peter MacCallum Cancer Centre, 2015
This is a random part of about 18,000 reagents tested. About 1,030 of all reagents (5.7%) count as active. 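Inactive calls also include pools with fewer than 3300 nuclei, whose migration was not assessed.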 The raw values are shown without normalisation. Unmarked entries are inactive. Further read-outs or replicates are left out here.

- Aim: 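Genome-wide hunt for genes controlling movement of lymphatic endothelial cells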 (primary screen)
- System: human lymphatic endothelial cells
- Knock-down reagent: siRNA pool against human genes, 40 nM
- Timing: 48 h after transfection
- Measurement: 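Cells stained with dye and imaged after a scratch; covered wound area and nuclei counted, duplicates averaged, migration set against mock wells and turned into a robust z-score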
- Scale: migration robust z-score: higher = faster migration into the scratch; nuclei per well: higher = more cells in the well
- Active means: 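Migration changed when robust z exceeds 2 or falls below -2 and mean nuclei number is at least 3300; otherwise not called changed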
- Meaning of the calls: active = migration changed; inactive = no migration change, or too few cells

gene	migration robust z-score	nuclei per well, duplicate mean
MARCHF6 (membrane associated ring-CH-type finger 6)	-0.68	4710
LHFPL3 (LHFPL tetraspan subfamily member 3)	0.16	5192
TOX2 (TOX high mobility group box family member 2)	2.11 (active)	6254
PPP4R1 (protein phosphatase 4 regulatory subunit 1)	0.86	5554
TTLL5 (tubulin tyrosine ligase like 5)	-0.66	6372
KIF7 (kinesin family member 7)	-2.14 (active)	3916
HOXA9 (homeobox A9)	0.96	5512
CENPBD1P (CENPB DNA-binding domain containing 1, pseudogene)	0.12	6300
TIMMDC1	0.68	4798
BIK (BCL2 interacting killer)	-0.55	5852
ADCY6 (adenylate cyclase 6)	2.1 (active)	5850
COL1A2 (collagen type I alpha 2 chain)	0.86	5053
PPIG (peptidylprolyl isomerase G)	0.96	5570
CHAD (chondroadherin)	0.42	5557
NAGLU (N-acetyl-alpha-glucosaminidase)	-0.96	5767
SNU13 (small nuclear ribonucleoprotein 13)	-1.15	6092
PITPNM3 (PITPNM family member 3)	-1.12	2999
SLC43A1	0.52	5458
ATP5F1A (ATP synthase F1 subunit alpha)	0.18	5617
ARPC4 (actin related protein 2/3 complex subunit 4)	-0.1	5476
GPN3 (GPN-loop GTPase 3)	-0.33	5904
NEK11 (NIMA related kinase 11)	-0.39	5840
CYB561D2 (cytochrome b561 family member D2)	-0.42	5300
XAGE1B (X antigen family member 1B)	0.8	6460
HTT (huntingtin)	-1.22	5086
PCBD1 (pterin-4 alpha-carbinolamine dehydratase 1)	-0.9	5359
OR4E2 (olfactory receptor family 4 subfamily E member 2)	2.27 (active)	5922
ZNF287 (zinc finger protein 287)	-0.72	5680
UBXN1 (UBX domain protein 1)	-0.09	4566
CSF3 (colony stimulating factor 3)	-0.62	6388
ERVW-1 (endogenous retrovirus group W member 1, envelope)	0.49	5615
PCDHGB2 (protocadherin gamma subfamily B, 2)	-0.17	5861
ACOT6 (acyl-CoA thioesterase 6)	1.14	5186
DBP (D-box binding PAR bZIP transcription factor)	-2.51 (active)	4554
STPG3 (sperm-tail PG-rich repeat containing 3)	2.88 (active)	6480
ICAM2 (intercellular adhesion molecule 2)	-0.26	6388
ACBD6 (acyl-CoA binding domain containing 6)	-0.61	6026
HEXIM1 (HEXIM P-TEFb complex subunit 1)	0.4	6040
FCAMR (Fc alpha and mu receptor)	-0.81	5652
POMGNT2	1.06	6425
TLR3 (toll like receptor 3)	-0.78	4512
LRP1B (LDL receptor related protein 1B)	-0.88	6603
FGFR2 (fibroblast growth factor receptor 2)	-1.5	2758
AMBRA1 (autophagy and beclin 1 regulator 1)	-0.74	5336
BCAM (basal cell adhesion molecule (Lutheran blood group))	-0.02	6478
DUSP14 (dual specificity phosphatase 14)	0.34	5915
EXT1 (exostosin glycosyltransferase 1)	0.96	5916
NAA30 (N-alpha-acetyltransferase 30, NatC catalytic subunit)	-1.82	6042
TBCA (tubulin folding cofactor A)	-0.8	5684
MMRN2 (multimerin 2)	-0.84	5576
BCL2 (BCL2 apoptosis regulator)	1.3	3885
OS9 (OS9 endoplasmic reticulum lectin)	-0.12	7300
MRPL55 (mitochondrial ribosomal protein L55)	0	6579
SAT1 (spermidine/spermine N1-acetyltransferase 1)	1.53	5082
CGNL1 (cingulin like 1)	1.73	7804
FSD1L (fibronectin type III and SPRY domain containing 1 like)	0.21	5808
SMAP2 (small ArfGAP2)	2.51 (active)	5801
